No constants are given. Whether binding was seen depends on the method and setting. Binding seen in cells or lysates may run through a third protein. Some entries that bind do so weakly or less than the wild type. Tags and fused reporters may be left off the sequences shown.
B1: Nap1 (protein, UniProt Q869Q3 1-1160)
chain: MAHTNLPEKFQVVIENGENILQRVYNTYKLFQNNKVKPSFFNDEKISKILKNLIAKYPELPENNDKSITGFDLLTSRAKQHLEELEDHYYTITDAYDWKEASFILMQEISSNTVSINFNNNIQLCSKFLDVLVLYGKINYLVSLIPDKKIITAVYAKLFLYTRSASEPTFSKMGRWINDIEQPFKKIQEEFRVLNDAVGHALSSFELTYAKRRVITQLRKDGALNLILKPEDIARPVQDSYRIELAYAGRIQQWILFGYLFAPGTLSTPQSIELLRFTLSECFYLSVFKDISISIHNEFNTLFKNYKSKTINLQKQKKIIKDAAQASTQEAPRKHAERRVYIRQELEAMWNLFRDKPCLLAPKINVLLAALSMAKEEIFWYFRHTDVIPPEKVKKFYNKQNEVREKRISSLLSLVDHLVQLVHTHKKMIQNYYLEYISGADILGLQKVITPQLLQNAGSIVTQAVNTIVNELKSLNANGQDYSFEGFRANWMRLGYLLQSNSCPLKESESKQITSRLNLIYTHSKNVDCLDQLLDEYGNMTQLWSYKEPLFHSFDAAIVDMTCDQPSHSMIYLKLLSQFPNHVANQFYPEEKELIGKECVELANSCLTKITNRIVSIMANTIASTFLSDEQQLADVNAAFPLLQKKKDWKPPKDFVPPIEPASESQFRNRANLEQLRSEEKNAFQLCTALNEFLDITIYDHIFVPREFLREKLGSALKQYMRQSIQPPAPTSSSSQIDINITRLSTYESQLRVFIGVLILVENHVDIDIGDLIRETILTEFYAKALGKSGRVDWFPEGEIEMNELTLHSITSYYVDLVSKKLNTPGVVFSPVKLGFISKAGTPFRAEEHADLTEMRALCDLVGPYGIKVIEREILRFILTTTTSMKEILSLNAANLEEFASNYYKPKAMELLKKFKTTDLDLIVTKSIAIGNALHLRSMIRESMKDVITDNFPYINNAVANAFDQYNRNTFMFPDFLGVDTLALDSGLNVGIADQYLKVILRKVSSEADKRIWELLPVMFSLTFYGNIWKETQYKATIDAHSNNVHVLSKTIIDLLIAFGAINSTTGNEAELFQSFKRFLEISSVNILRMFKGKQGEKFVPNEIQSVIIFLDKFTQQCPLLSKDSLEQYIPYSLIRNMYKDLYEHKNLQKQQSETSEQNF
B2: Scar (protein, UniProt Q54NF8 1-443)
chain: MVLITRYLPSVTDNNQPALEGQSKDQIVDTVITSTTVGIINQLTMLVAHSNSIFTALANDANLVTQRIEKLGSRIRPLIQSIPSIEDYHRNTSIDTMNSKPRAEFHADNSERNQHFTHASIPASINTVYEKCKPPPNLQLLDPYMDDGQKSLKLYTNPDFFMDEWVAEQQKLHEEARQRKRERREARLKKKGEKNEVEVKKVKSVTKVRYDPVTGEKITINIESPHTSSPQIQHQSNNTATPQHTTQHFGTNQYQAPPPPPLSQSSPSQQHSPINSYTPPPPPLNTSTPSPSSSFQGRPPSTGFNTPPPPMSNNNNMPPPPPMQQNGGAANNRLSVHNSAPIVAAPAPPPPPPPPSAPAPPPPPMAKAGGGASDIKPKASGARSDLLSSIMQGMALKPAEERKVAEAPKKEEALNVADILARRIAWAGDSDSSEDESDDSDWD
B3: Abi^WT (protein, UniProt Q55FT9 1-332)
chain: MSESIDINVYSQTTIPNAMAELMDNHNKMEQISAYCKSLYANGDAAQAYEQTQGYAKNALLNVAYHIQTVGTHITSLLQLQTNEMEKLNIEIQTLTQRVRMIHDSTGTNVFSNQDAAKPYKSSLKNRKVDTEATKAPVKYVHKPISYGISASDINQNGVPPPLNHSNSSANLTSSSGHLAASSTSNSSTPSYQSPSYSSQPTISSGTPPPIQKQPPRVGNAPPPPSLSVPAAPPPPVMNVPPPPPTSQRPSSVNNNAPSNDFPPPPPPSSSSSGGDLPPPPSFGLPPPPTLGDDFPPPPPPPVGSYDFPPPPARPQSQFYDHNDFPPPPPPM
B4: Abi^S3D (S166/168/169D) (protein, UniProt Q55FT9 1-332)
chain: MSESIDINVYSQTTIPNAMAELMDNHNKMEQISAYCKSLYANGDAAQAYEQTQGYAKNALLNVAYHIQTVGTHITSLLQLQTNEMEKLNIEIQTLTQRVRMIHDSTGTNVFSNQDAAKPYKSSLKNRKVDTEATKAPVKYVHKPISYGISASDINQNGVPPPLNHDNDDANLTSSSGHLAASSTSNSSTPSYQSPSYSSQPTISSGTPPPIQKQPPRVGNAPPPPSLSVPAAPPPPVMNVPPPPPTSQRPSSVNNNAPSNDFPPPPPPSSSSSGGDLPPPPSFGLPPPPTLGDDFPPPPPPPVGSYDFPPPPARPQSQFYDHNDFPPPPPPM
B5: Abi^S3A (S166/168/169A) (protein, UniProt Q55FT9 1-332)
chain: MSESIDINVYSQTTIPNAMAELMDNHNKMEQISAYCKSLYANGDAAQAYEQTQGYAKNALLNVAYHIQTVGTHITSLLQLQTNEMEKLNIEIQTLTQRVRMIHDSTGTNVFSNQDAAKPYKSSLKNRKVDTEATKAPVKYVHKPISYGISASDINQNGVPPPLNHANAAANLTSSSGHLAASSTSNSSTPSYQSPSYSSQPTISSGTPPPIQKQPPRVGNAPPPPSLSVPAAPPPPVMNVPPPPPTSQRPSSVNNNAPSNDFPPPPPPSSSSSGGDLPPPPSFGLPPPPTLGDDFPPPPPPPVGSYDFPPPPARPQSQFYDHNDFPPPPPPM
B6: Pir121 (protein, UniProt Q6UK63 1-1336)
chain: MSVDPKQSKIADVFERCDVLESFPFHDDQSEIEEQSPSIGYDAYDKSLNYTDRGAYETQWSEETIGMEKMEEVLKQGDSFINMVYTYRSCSKALPTVKTAEQVNKTQIYEGNFEVLEPEIKKLKDFMYFQKDTIKLFCDHIKKLASTYDKKKETISASESFINYLVRILDLLAILDALKNMKACLNNDFSFFKRATGFLRKQMSGTEDQTQENHTLYLFLANQNSITSSLKLELHNIDKFDDILPMIVNQCADYLEQEKYILPSEKHCLLRVMPFVLFLIDENDSKHNINKNKNLNISRYAKIFKKNPVVPLYGDMQITLESLVKRSPHFDEKAWGTSTLDSKSALDYEIIHVLDQTRSLYNEYMARFANMVNEIRAAKARGPKEPLPLAESDIQAITLMGLRILSDWTSRVLQQSAWKYSKPNNDPTISATFDYERVVKFNYTKEERTALVQLIAMIKSLASLMMKSETLLQPILRKTIHQELQEFVQINLKETIKSFVKNNPKKKDNIKLEMSQLKNISVDWFSGFEPAEAVPNKKSKEVEEKVQIPARAVPPSPTQLELILTLVSSLMDKKKDFSSDQYRDFEAFSSKAFFYRYLLSLSSSIISITDLADLWYREFYLELNNRVQFPIETSLPWILTDHILESDDPSLIEHLFYPLGLYNDTAQRALLSLNQRFLYDEIEAELNLCFDQLLYKLSGKVYTHFKTQASSILLDKPYKTQLELAHFNGKLHTPKSRFDVLLRQKHITLLGRSIDLCGLLAQRQNNTIRQNLDYAISRFEACDLTSIVELETQIANIKLTHKLLSEYFDIDPFESIFNEINESTSLVSYHGRIVLHIIFELVADFAPNYTFNSITQRFIKAPYTFTEELKRDALPKTNPVFLFGNKYLNAAYANSIELYKNFIGVPHIQSILRIVGKKNLPLIVAEVLRNIEIKITNVLSPYVSELLQGMPASTKLPIYDYGTEGGYGYFQLKLKDIYIYPDLRPEVLQTFRELGNSLVFMNLLDQVITQTDSYNFAKAAPFLGITPETWKDLEPSTEDPTLQSPLYSQLQKLAQLLESRPEVAKSSQSLNDMVANAWRADKFYRPSEQNFSLFKSVLQRFSSILNIVRHDWSGAPPDNGVICVDSSTEFYRLWSALQFVICWPLSNENDKSFHELFGDGLMWAGCSLIHFLGQQYRFELFDFCYHILNVEEAAAVRSDKPALKNFFKNAQIIKDINNQIFSILNTYCPPPPPSNMILSPPATEQAEQFIVTTTVEEQSIQQQQQQQQQQQLQQSTSNSGSSLSLSAAGAPPPPPPPSTNGLPPPPPMAEYEMSSSIDDFAPPPPPPFGMPPPPPM

molecular target: T1, HSPC300-eGFP (Dictyostelium discoideum) (UniProt Q54X65); experiment: co-IP
T1 sequence: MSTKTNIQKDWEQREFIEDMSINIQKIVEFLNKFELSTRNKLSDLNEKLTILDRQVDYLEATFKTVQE

binding, binds:
B1, B2, B3, B4, B5, B6
